The values that follow come from patent publication US7247611.

In experiment [1] the target is single chain urokinase-type plasminogen activator (UniProt P00749). Put plainly: 125I-scuPA on LM-TK- cells with peptide (FIG. 1A); indirect read-out of the peptide acting on scuPA.
For experiment [2] the target is unchanged. Put plainly: 125I-scuPA preincubated with PAI-1, then peptide EEIIMD, on LM-TK- cells (FIG. 2).
For experiment [3] the target is unchanged. Put plainly: inferred from the cell binding experiments with scuPA, peptide and PAI-1.

These are yes or no findings as the source states them, for the method shown. Some results given as binding are weak or reduced against the parent protein; the word gives no strength.

B1: peptide REIIMD (SEQ ID NO: 4) (peptide)
peptide: REIIMD
Regarding B1, in experiment [1], the binding entry was “binds”.

B2: peptide EEIIMD (SEQ ID NO: 3) (peptide)
peptide: EEIIMD
On to B2, for which the binding result in experiment [2] and in experiment [3] was “binds” in each case.
